Experimental data as given in the supplement of paper PMC8728848.
This is one part of the list.

Legend:
Experiment in all cases: glycan array binding signal (z-score within array); higher = stronger binding
Conditions in all cases: glycan notation: IUPAC condensed, linker removed
[1] = biological target: Fuc(a1-2)Gal(b1-4)GlcNAc(b1-2)[Fuc(a1-2)Gal(b1-4)GlcNAc(b1-4)]Man(a1-3)[Fuc(a1-2)Gal(b1-4)GlcNAc(b1-2)Man(a1-6)]Man(b1-4)GlcNAc(b1-4)GlcNAc
Procedure, shortened: (§1)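 Negative Z-scores can be read as non-binding. The Z-score is calculated within each array and then averaged across arrays of one protein sequence at different concentrations or buffers and across linkers. Arrays, 3228 in all, were curated from the Consortium for Functional Glycomics database and kept only where the protein sequence was available.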

[2] = biological target: Fuc(a1-2)Gal(b1-4)GlcNAc(b1-3)Gal(b1-4)GlcNAc
Procedure, shortened: as §1

[3] = biological target: Fuc(a1-2)Gal(b1-4)GlcNAc(b1-3)Gal(b1-4)GlcNAc(b1-2)Man(a1-3)[Fuc(a1-2)Gal(b1-4)GlcNAc(b1-3)Gal(b1-4)GlcNAc(b1-2)Man(a1-6)]Man(b1-4)GlcNAc(b1-4)GlcNAc
Procedure, shortened: as §1

[4] = biological target: Fuc(a1-2)Gal(b1-4)GlcNAc(b1-3)Gal(b1-4)GlcNAc(b1-3)Gal(b1-4)GlcNAc
Procedure, shortened: as §1

[5] = biological target: Fuc(a1-2)Gal(b1-4)GlcNAc(b1-3)GalNAc
Procedure, shortened: as §1

[6] = biological target: Fuc(a1-2)Gal(b1-4)GlcNAc(b1-3)[Fuc(a1-2)Gal(b1-4)GlcNAc(b1-6)]GalNAc
Procedure, shortened: as §1

[7] = biological target: Fuc(a1-2)Gal(b1-4)GlcNAc(b1-3)[Fuc(a1-3)[Gal(b1-4)]GlcNAc(b1-6)]Gal(b1-4)Glc
Procedure, shortened: as §1

[8] = biological target: Fuc(a1-2)Gal(b1-4)GlcNAc(b1-6)GalNAc
Procedure, shortened: as §1

[9] = biological target: Fuc(a1-2)Gal(b1-4)GlcNAc6S
Procedure, shortened: as §1

[10] = biological target: Fuc(a1-2)Gal(b1-4)[Fuc(a1-3)]GlcNAc
Procedure, shortened: as §1

[11] = biological target: Fuc(a1-2)Gal(b1-4)[Fuc(a1-3)]GlcNAc(b1-2)Man(a1-3)[Fuc(a1-2)Gal(b1-4)[Fuc(a1-3)]GlcNAc(b1-2)Man(a1-6)]Man(b1-4)GlcNAc(b1-4)GlcNAc
Procedure, shortened: as §1

[12] = biological target: Fuc(a1-2)Gal(b1-4)[Fuc(a1-3)]GlcNAc(b1-2)Man(a1-3)[Fuc(a1-2)Gal(b1-4)[Fuc(a1-3)]GlcNAc(b1-2)Man(a1-6)]Man(b1-4)GlcNAc(b1-4)[Fuc(a1-6)]GlcNAc
Procedure, shortened: as §1

[13] = biological target: Fuc(a1-2)Gal(b1-4)[Fuc(a1-3)]GlcNAc(b1-2)[Fuc(a1-2)Gal(b1-4)[Fuc(a1-3)]GlcNAc(b1-4)]Man(a1-3)[Fuc(a1-2)Gal(b1-4)[Fuc(a1-3)]GlcNAc(b1-2)Man(a1-6)]Man(b1-4)GlcNAc(b1-4)GlcNAc
Procedure, shortened: as §1

[14] = biological target: Fuc(a1-2)Gal(b1-4)[Fuc(a1-3)]GlcNAc(b1-3)Gal(b1-4)[Fuc(a1-3)]GlcNAc
Procedure, shortened: as §1

[15] = biological target: Fuc(a1-2)Gal(b1-4)[Fuc(a1-3)]GlcNAc(b1-3)Gal(b1-4)[Fuc(a1-3)]GlcNAc(b1-3)Gal(b1-4)[Fuc(a1-3)]GlcNAc
Procedure, shortened: as §1

[16] = biological target: Fuc(a1-2)Gal(b1-4)[Fuc(a1-3)]GlcNAc(b1-3)GalNAc
Procedure, shortened: as §1

[17] = biological target: Fuc(a1-2)Gal(b1-4)[Fuc(a1-3)]GlcNAc(b1-3)[Neu5Ac(a2-6)Gal(b1-4)GlcNAc(b1-6)]Gal(b1-4)Glc
Procedure, shortened: as §1

[18] = biological target: Fuc(a1-2)Gal3S(b1-4)GlcNAc
Procedure, shortened: as §1

[19] = biological target: Fuc(a1-2)Gal6S(b1-3)GlcNAc
Procedure, shortened: as §1

[20] = biological target: Fuc(a1-2)Gal6S(b1-3)GlcNAc6S
Procedure, shortened: as §1

Fuc(a1-2)Gal6S(b1-4)Glc = biological target: Fuc(a1-2)Gal6S(b1-4)Glc
Procedure, shortened: as §1

[21] = biological target: Fuc(a1-2)Gal6S(b1-4)Glc6S
Procedure, shortened: as §1

[22] = biological target: Fuc(a1-2)Gal6S(b1-4)GlcNAc
Procedure, shortened: as §1

Fuc(a1-2)GlcNAc = biological target: Fuc(a1-2)GlcNAc
Procedure, shortened: as §1

Fuc(a1-2)[Gal(a1-3)]Gal = biological target: Fuc(a1-2)[Gal(a1-3)]Gal
Procedure, shortened: as §1

[23] = biological target: Fuc(a1-2)[Gal(a1-3)]Gal(b1-3)GalNAc
Procedure, shortened: as §1

[24] = biological target: Fuc(a1-2)[Gal(a1-3)]Gal(b1-3)GalNAc(b1-3)Gal(a1-4)Gal(b1-4)Glc
Procedure, shortened: as §1

[25] = biological target: Fuc(a1-2)[Gal(a1-3)]Gal(b1-3)GlcNAc
Procedure, shortened: as §1

[26] = biological target: Fuc(a1-2)[Gal(a1-3)]Gal(b1-3)GlcNAc(b1-2)Man(a1-3)[Fuc(a1-2)[Gal(a1-3)]Gal(b1-3)GlcNAc(b1-2)Man(a1-6)]Man(b1-4)GlcNAc(b1-4)GlcNAc
Procedure, shortened: as §1

[27] = biological target: Fuc(a1-2)[Gal(a1-3)]Gal(b1-3)GlcNAc(b1-2)Man(a1-3)[Fuc(a1-2)[Gal(a1-3)]Gal(b1-3)GlcNAc(b1-2)Man(a1-6)]Man(b1-4)GlcNAc(b1-4)[Fuc(a1-6)]GlcNAc
Procedure, shortened: as §1

[28] = biological target: Fuc(a1-2)[Gal(a1-3)]Gal(b1-3)GlcNAc(b1-3)GalNAc
Procedure, shortened: as §1

[29] = biological target: Fuc(a1-2)[Gal(a1-3)]Gal(b1-3)GlcNAc(b1-6)GalNAc
Procedure, shortened: as §1

[30] = biological target: Fuc(a1-2)[Gal(a1-3)]Gal(b1-4)Glc
Procedure, shortened: as §1

[31] = biological target: Fuc(a1-2)[Gal(a1-3)]Gal(b1-4)GlcNAc
Procedure, shortened: as §1

[32] = biological target: Fuc(a1-2)[Gal(a1-3)]Gal(b1-4)GlcNAc(b1-2)Man
Procedure, shortened: as §1

[33] = biological target: Fuc(a1-2)[Gal(a1-3)]Gal(b1-4)GlcNAc(b1-2)Man(a1-3)[Fuc(a1-2)[Gal(a1-3)]Gal(b1-4)GlcNAc(b1-2)Man(a1-6)]Man(b1-4)GlcNAc(b1-4)GlcNAc
Procedure, shortened: as §1

[34] = biological target: Fuc(a1-2)[Gal(a1-3)]Gal(b1-4)GlcNAc(b1-2)Man(a1-3)[Fuc(a1-2)[Gal(a1-3)]Gal(b1-4)GlcNAc(b1-2)Man(a1-6)]Man(b1-4)GlcNAc(b1-4)[Fuc(a1-6)]GlcNAc
Procedure, shortened: as §1

B1: CRT-1 (Homo sapiens), P27797 (protein)
chain: MLLSVPLLLGLLGLAVAEPAVYFKEQFLDGDGWTSRWIESKHKSDFGKFVLSSGKFYGDEEKDKGLQTSQDARFYALSASFEPFSNKGQTLVVQFTVKHEQNIDCGGGYVKLFPNSLDQTDMHGDSEYNIMFGPDICGPGTKKVHVIFNYKGKNVLINKDIRCKDDEFTHLYTLIVRPDNTYEVKIDNSQVESGSLEDDWDFLPPKKIKDPDASKPEDWDERAKIDDPTDSKPEDWDKPEHIPDPDAKKPEDWDEEMDGEWEPPVIQNPEYKGEWKPRQIDNPDYKGTWIHPEIDNPEYSPDPSIYAYDNFGVLGLDLWQVKSGTIFDNFLITNDEAYAEEFGNETWGVTKAAEKQMKDKQDEEQRLKEEEEDKKRKEEEEAEDKEDDEDKDEDEEDEEDKEEDEEEDVPGQAKDEL
[1]
  glycan array binding signal (z-score): 0.144
[2]
  glycan array binding signal (z-score): -0.062
[3]
  glycan array binding signal (z-score): -0.387
[4]
  glycan array binding signal (z-score): 0.079
[5]
  glycan array binding signal (z-score): -0.352
[6]
  glycan array binding signal (z-score): -0.099
[7]
  glycan array binding signal (z-score): 0.038
[8]
  glycan array binding signal (z-score): -0.299
[9]
  glycan array binding signal (z-score): 1.26
[10]
  glycan array binding signal (z-score): 0.45
[11]
  glycan array binding signal (z-score): 2.15
[12]
  glycan array binding signal (z-score): 0.359
[13]
  glycan array binding signal (z-score): 0.162
[14]
  glycan array binding signal (z-score): 0.514
[15]
  glycan array binding signal (z-score): -0.191
[16]
  glycan array binding signal (z-score): 0.11
[17]
  glycan array binding signal (z-score): -0.212
[18]
  glycan array binding signal (z-score): -0.292
[19]
  glycan array binding signal (z-score): -0.615
[20]
  glycan array binding signal (z-score): 0.305
Fuc(a1-2)Gal6S(b1-4)Glc
  glycan array binding signal (z-score): -0.675
[21]
  glycan array binding signal (z-score): -0.576
[22]
  glycan array binding signal (z-score): -0.237
Fuc(a1-2)GlcNAc
  glycan array binding signal (z-score): 0.616
Fuc(a1-2)[Gal(a1-3)]Gal
  glycan array binding signal (z-score): -0.136
[23]
  glycan array binding signal (z-score): -0.128
[24]
  glycan array binding signal (z-score): 0.027
[25]
  glycan array binding signal (z-score): -0.481
[26]
  glycan array binding signal (z-score): -0.672
[27]
  glycan array binding signal (z-score): 0.196
[28]
  glycan array binding signal (z-score): -0.073
[29]
  glycan array binding signal (z-score): 0.65
[30]
  glycan array binding signal (z-score): 0.755
[31]
  glycan array binding signal (z-score): -0.547
[32]
  glycan array binding signal (z-score): 0.071
[33]
  glycan array binding signal (z-score): 0.635
[34]
  glycan array binding signal (z-score): -0.254
